{
  "sequences": {"note": "The chains behind the UniProt entries cited, without tags or fusion partners. Where a name states a change or a piece, a line headed by the entry shows the natural chain unless it says otherwise. Residues count along the entry.", "UniProt O35129, residues 89-299": "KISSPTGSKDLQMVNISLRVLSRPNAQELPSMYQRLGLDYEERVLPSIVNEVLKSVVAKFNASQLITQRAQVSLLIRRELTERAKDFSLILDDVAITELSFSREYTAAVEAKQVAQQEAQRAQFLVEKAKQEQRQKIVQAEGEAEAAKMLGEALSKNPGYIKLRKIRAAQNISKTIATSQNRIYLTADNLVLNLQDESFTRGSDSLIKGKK", "UniProt O08808": "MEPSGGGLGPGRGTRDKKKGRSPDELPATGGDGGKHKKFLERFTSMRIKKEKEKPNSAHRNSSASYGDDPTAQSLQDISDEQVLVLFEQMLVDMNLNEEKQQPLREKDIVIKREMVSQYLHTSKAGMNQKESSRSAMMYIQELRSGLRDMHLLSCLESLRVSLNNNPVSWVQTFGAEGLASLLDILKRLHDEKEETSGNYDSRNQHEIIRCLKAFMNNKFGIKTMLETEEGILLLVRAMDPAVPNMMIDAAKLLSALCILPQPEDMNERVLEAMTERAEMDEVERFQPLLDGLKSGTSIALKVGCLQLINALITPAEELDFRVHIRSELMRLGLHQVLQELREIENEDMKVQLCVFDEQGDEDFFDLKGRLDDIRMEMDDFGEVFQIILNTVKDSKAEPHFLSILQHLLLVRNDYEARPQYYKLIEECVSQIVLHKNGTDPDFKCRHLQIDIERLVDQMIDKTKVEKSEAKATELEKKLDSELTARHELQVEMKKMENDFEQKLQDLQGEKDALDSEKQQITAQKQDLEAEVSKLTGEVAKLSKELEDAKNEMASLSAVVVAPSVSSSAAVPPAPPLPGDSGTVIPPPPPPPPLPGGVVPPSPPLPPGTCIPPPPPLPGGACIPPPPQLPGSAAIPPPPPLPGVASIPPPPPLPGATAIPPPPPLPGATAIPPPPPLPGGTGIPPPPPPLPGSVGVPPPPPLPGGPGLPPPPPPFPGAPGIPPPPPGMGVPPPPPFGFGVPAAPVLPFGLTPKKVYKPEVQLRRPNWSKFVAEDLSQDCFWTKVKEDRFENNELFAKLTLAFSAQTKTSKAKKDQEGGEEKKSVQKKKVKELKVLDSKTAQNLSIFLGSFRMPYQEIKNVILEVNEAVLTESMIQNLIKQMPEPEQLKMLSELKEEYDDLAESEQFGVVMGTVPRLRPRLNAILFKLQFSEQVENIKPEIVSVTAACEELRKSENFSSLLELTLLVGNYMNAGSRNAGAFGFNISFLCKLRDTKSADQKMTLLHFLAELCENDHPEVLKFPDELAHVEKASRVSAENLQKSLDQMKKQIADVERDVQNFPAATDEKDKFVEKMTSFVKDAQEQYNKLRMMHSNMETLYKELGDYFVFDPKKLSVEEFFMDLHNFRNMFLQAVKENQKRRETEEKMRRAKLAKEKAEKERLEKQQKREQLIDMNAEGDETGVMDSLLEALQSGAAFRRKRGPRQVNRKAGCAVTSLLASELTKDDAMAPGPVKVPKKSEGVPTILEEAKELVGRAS"},
  "source": "paper PMC6549159",
  "biological_target": "flag-tagged Phb2-Y2H (aa 89-299) (mouse) (UniProt O35129)",
  "test": "co-IP; HEK293T co-transfected with flag-tagged Phb2 construct and GFP-tagged mDia1 construct; IP with anti-flag antibody, blot with anti-GFP",
  "note": "Results are given in words; binding and its absence hold for the method and conditions named. In cells and extracts the contact can be indirect. Binding calls can cover weak binding; strength is not graded here.",
  "data": [
    {"substance": "GFP-tagged mDia1ΔN3(HindIII) (from UniProt O08808) (domain or fragment)", "values": [
      {"measurement": "binding", "value": "binds"}
    ]}
  ]
}
